## Results of single-concentration screens

The filed quantity is “Percent Effect” (%). How 0% and 100% were set is not recorded. Most values in the screen are low, and negative values occur. Compounds were drawn at random from those tested, without regard to their results. Two or more numbers in one place are separate tests of the same structure; such repeats can differ widely.

A: 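Whole-cell growth test on Mycobacterium tuberculosis, read after 4 days in a medium based on cholesterol and the lipid DPPC; the read-out is not stated. Tested at 50 µM. Direction is inferred from retests: higher values go with more growth inhibition. About 69,000 compounds were tested under these conditions; 0.54% (about 370) showed 50% or more at least once.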
B: 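Whole-cell growth test on Mycobacterium tuberculosis, read after 3 days in glucose-containing 7H9 medium; the read-out is not stated. Compounds at 50 µM. The record gives no direction; compounds that gave an IC50 in retests scored well above the rest, so higher reads as more growth inhibition. Size under these conditions: about 69,000 compounds, about 760 of them at 50% or above in at least one test.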

SMILES,A,B
c1cc(CN2CCC(c3ccncc3)CC2)cc(Cn2cccn2)c1,-17.21 & 2.719,-15.46
Cn1ncc(Cl)c1C(=O)N1CCc2nc3sccc3c(=O)n2CC1,0.1285,-21.64
Cc1nc(CN2CCCC2c2c(C)nn(C)c2Cl)no1 (stereo not shown),-6.446,22.63
COc1ccnc(N2CCC3(CC2)[C@H](O)C[C@@H]3OCCN(C)C)n1,13.7,-6.64
COC1COC2(CCN(C(=O)c3cocn3)CC2)C1 (stereo not shown),10.67,21.09 & -4.34
CN(C)CCN1CCC2(CCN(C(=O)c3ccncc3)CC2)C1=O.O=C(O)C(F)(F)F.O=C(O)C(F)(F)F,-8.11 & -6.438,-12.6
NC(=O)C1(CCCc2ccccn2)CCCN(c2ncccn2)C1 (stereo not shown),16.09,27.46
CC(C)C1CN(S(=O)(=O)N(C)C)CCCN1Cc1ccc(F)cc1 (stereo not shown),-14.4,-9.924 & 7.91
CS(=O)(=O)N1CCN(c2cnnc(N3CCCC3)c2)CC1,-13.47,-4.041
CC(=O)N(Cc1ncc(C)o1)C1CCN(CCc2cnn(C)c2)C1 (stereo not shown),-10.94,-27.12
Cc1ccc(NC(=O)CN2CCOCC2)c(F)c1,-49.28,-62.12
Cc1cnc(CN(Cc2ccc(C#N)cc2F)C2CCN(C)C2)o1 (stereo not shown),6.835,-9.184
CCc1nc2n(n1)CC(NCc1cn(C)nc1-c1cccnc1)CC2 (stereo not shown),-9.091,-1.51
O=C(Cc1ccc2c(c1)OCC2)Nc1nc[nH]n1,8.586,-5.628
Cc1cnn(CC2CCCCN2CCC(=O)Nc2cc(C)on2)c1 (stereo not shown),8.051,4.453
CCc1ocnc1C(=O)Nc1ccc2ccn(CCN(C)C)c2c1,31.9,21.91
FC(F)COc1ccccc1NCc1nnsc1Cl,4.056,7.893
COc1cccc2c1OCC(NC(=O)NCCc1ccccn1)C2 (stereo not shown),-6.513,21.37
CCS(=O)(=O)c1ccccc1N1CCC(N)CC1,9.032,-32.99 & -0.4821
COCC(=O)N1CCC2(CC1)CN(c1ccccn1)CCO2.O=C(O)C(F)(F)F,0.519,6.115
Cc1nc(CN(C)Cc2cnc(N3CCOCC3)s2)no1,-13.49,-2.352 & -2.43
COc1ccc(-c2cnc(NC(C)=O)[nH]2)cc1,3.367,17.97
CN(C(=O)C1(C#N)CCCCC1)c1nccs1,17.65,-7.831
O=C(O)C(F)(F)F.[H][C@@]12CCN(c3nncs3)[C@@]1([H])CCN2C(=O)CC1CCCC1,-22.96,-5.875 & -16.66
CN(Cc1cccs1)C(=O)c1ccc(=O)n(C)c1,8.769,-6.188
CC(=O)N1CCCC1c1nnn2cc(-c3ccncc3)ccc12.O=C(O)C(F)(F)F (stereo not shown),77.15 & -7.512,3.576 & -3.014
Cc1cc(N[C@@H](CO)c2ccccc2)n2nc(C)c(C)c2n1,24.79,-15.24 & 14.18
CCOCC1CN(C(=O)C2=CCCC2)Cc2cnn(C)c21 (stereo not shown),-0.4648,27.58
CN(C)c1cccc(C2CCCN2Cc2nnnn2C2CC2)c1 (stereo not shown),5.252,-16.39
O=C(CN1CCC2(CCCCC2)C1)NCC(F)(F)F,8.422,21.54
CCN(CC)S(=O)(=O)N(Cc1ccccn1)Cc1ccccc1C,-17.25,-1.423 & -69.06
CCC[C@H]1CN(S(=O)(=O)c2ccc(CC)s2)C[C@@H]1N,15.05,-0.2661
CC(=O)N1CCN(c2cc(N(C)C)cnn2)CC1,12.08,20.58 & -1.258
COCC(=O)N1CCC2(COCc3cnc(-c4ccccc4)nc32)C1 (stereo not shown),-10.82,-2.335 & 2.996
Cc1ncc2c(c1C(=O)O)CCN(c1ncc(F)cn1)C2.O=C(O)C(F)(F)F,10.09,-8.789 & -27.3
CC(C)(C)c1cnc(CNc2cccc(Cn3cnnc3)c2)o1,5.184,9.937 & 33.42
CCN1C(=O)C(C#N)=C(C)/C(=C/C2=Cc3ccccc3OC2)C1=O,-18.96,-61.23
Cn1c(=O)c2cc(C(=O)NCCOc3ccccc3)ccc2n(C)c1=O,-30.84,-14.87
CCCc1nnc2sc(C3CCN(CCOC)CC3)nn12,-10.11,-13.25 & -5.939
COC(C)c1noc(CN(C)c2ncc(Br)cn2)n1 (stereo not shown),-9.414,-2.63
COCCN(C)C(=O)c1ccc(OC)cc1O,-16.69,-10.36
c1ccc(-c2nc(CN3CCn4c(nnc4C4CC4)C3)co2)cc1,4.453,3.214

5 of the entries, repeated:

SMILES,A,B
O=C(CN1CCC2(CCCCC2)C1)NCC(F)(F)F,8.422,21.54
Cn1ncc(Cl)c1C(=O)N1CCc2nc3sccc3c(=O)n2CC1,0.1285,-21.64
c1cc(CN2CCC(c3ccncc3)CC2)cc(Cn2cccn2)c1,-17.21 & 2.719,-15.46
Cc1cc(N[C@@H](CO)c2ccccc2)n2nc(C)c(C)c2n1,24.79,-15.24 & 14.18
O=C(Cc1ccc2c(c1)OCC2)Nc1nc[nH]n1,8.586,-5.628

Measurements from “University of Dundee, Small-Polar-MMV Screening Library” (2021), ChEMBL document CHEMBL3988442.